# According to the supplement of paper PMC6411743:
# Sequences of proteins named here, by UniProt entry; tags and fusion partners are left off. A change or cut given only in a name is not applied to a line headed by its entry.
# UniProt Q9BU23: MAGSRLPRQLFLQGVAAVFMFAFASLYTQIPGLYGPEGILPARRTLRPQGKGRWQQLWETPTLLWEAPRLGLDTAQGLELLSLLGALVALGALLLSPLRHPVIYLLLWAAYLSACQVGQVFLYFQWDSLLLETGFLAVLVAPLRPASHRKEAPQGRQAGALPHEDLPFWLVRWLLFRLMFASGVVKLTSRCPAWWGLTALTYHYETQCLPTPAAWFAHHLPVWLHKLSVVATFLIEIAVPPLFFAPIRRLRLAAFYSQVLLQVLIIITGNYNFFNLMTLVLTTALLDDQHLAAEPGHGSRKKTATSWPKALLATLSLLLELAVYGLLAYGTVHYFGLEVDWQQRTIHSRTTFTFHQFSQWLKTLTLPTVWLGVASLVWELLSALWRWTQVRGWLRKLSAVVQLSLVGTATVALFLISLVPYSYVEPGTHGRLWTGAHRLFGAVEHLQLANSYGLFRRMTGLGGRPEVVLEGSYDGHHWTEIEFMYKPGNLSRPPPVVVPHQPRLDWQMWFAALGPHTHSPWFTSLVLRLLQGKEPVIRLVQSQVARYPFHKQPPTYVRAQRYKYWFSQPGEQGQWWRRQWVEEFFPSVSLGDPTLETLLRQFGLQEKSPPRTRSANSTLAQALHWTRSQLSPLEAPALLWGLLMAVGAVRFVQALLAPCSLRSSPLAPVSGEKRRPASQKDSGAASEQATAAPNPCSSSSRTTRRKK
# UniProt Q99571: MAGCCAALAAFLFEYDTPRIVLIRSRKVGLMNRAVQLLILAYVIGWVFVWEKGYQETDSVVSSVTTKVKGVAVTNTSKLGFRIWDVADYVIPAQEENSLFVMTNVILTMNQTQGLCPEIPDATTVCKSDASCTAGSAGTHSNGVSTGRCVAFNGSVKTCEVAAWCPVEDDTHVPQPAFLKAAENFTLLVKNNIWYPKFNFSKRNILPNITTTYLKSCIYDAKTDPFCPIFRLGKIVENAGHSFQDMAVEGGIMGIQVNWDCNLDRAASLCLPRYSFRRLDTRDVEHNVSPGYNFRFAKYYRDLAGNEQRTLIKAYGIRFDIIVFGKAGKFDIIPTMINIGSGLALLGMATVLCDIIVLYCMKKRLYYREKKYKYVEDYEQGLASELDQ
# UniProt Q9BTE1, whole entry: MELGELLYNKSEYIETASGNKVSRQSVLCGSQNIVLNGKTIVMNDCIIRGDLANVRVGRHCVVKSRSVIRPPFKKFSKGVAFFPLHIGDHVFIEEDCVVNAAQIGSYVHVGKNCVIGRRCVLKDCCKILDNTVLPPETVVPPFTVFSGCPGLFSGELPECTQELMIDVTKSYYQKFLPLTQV
# UniProt Q9BYV8: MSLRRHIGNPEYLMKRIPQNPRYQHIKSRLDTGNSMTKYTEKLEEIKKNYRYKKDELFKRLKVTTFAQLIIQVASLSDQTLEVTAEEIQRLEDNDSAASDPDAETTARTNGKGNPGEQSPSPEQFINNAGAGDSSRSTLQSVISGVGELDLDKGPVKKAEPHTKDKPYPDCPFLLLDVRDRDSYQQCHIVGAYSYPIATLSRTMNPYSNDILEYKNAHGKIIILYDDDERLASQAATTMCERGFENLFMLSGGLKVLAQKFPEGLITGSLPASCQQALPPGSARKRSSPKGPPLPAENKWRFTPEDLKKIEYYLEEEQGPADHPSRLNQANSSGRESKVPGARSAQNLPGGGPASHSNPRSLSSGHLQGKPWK
# UniProt Q9BX40: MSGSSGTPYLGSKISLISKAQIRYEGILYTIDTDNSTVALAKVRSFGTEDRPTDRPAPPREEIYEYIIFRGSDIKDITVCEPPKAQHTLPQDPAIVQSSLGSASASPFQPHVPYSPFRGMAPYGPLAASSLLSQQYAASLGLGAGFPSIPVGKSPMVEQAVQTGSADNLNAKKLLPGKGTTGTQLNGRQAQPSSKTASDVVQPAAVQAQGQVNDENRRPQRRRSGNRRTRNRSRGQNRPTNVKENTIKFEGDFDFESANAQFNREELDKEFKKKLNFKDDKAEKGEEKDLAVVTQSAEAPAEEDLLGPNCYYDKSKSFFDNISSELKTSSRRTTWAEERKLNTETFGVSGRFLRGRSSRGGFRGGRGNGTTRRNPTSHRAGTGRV
# UniProt Q9BW92: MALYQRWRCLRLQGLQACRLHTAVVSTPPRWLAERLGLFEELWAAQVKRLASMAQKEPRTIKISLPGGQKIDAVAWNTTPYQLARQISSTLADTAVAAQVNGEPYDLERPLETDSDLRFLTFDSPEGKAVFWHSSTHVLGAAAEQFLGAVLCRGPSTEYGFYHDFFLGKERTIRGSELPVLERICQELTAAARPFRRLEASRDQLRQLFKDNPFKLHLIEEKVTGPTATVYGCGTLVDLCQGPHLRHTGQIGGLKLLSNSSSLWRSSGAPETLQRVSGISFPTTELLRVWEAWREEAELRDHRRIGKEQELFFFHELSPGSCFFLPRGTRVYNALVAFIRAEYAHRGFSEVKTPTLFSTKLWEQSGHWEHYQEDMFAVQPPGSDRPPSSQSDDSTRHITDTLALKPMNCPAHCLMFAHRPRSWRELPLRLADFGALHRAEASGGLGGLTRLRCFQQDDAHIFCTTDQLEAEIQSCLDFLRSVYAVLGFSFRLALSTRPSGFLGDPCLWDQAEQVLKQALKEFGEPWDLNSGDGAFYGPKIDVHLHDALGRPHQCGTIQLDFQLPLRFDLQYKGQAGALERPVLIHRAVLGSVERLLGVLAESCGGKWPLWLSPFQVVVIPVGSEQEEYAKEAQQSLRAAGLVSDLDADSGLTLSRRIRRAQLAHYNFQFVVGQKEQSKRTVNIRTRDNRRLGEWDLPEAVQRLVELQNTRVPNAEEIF
# UniProt Q9BWT3: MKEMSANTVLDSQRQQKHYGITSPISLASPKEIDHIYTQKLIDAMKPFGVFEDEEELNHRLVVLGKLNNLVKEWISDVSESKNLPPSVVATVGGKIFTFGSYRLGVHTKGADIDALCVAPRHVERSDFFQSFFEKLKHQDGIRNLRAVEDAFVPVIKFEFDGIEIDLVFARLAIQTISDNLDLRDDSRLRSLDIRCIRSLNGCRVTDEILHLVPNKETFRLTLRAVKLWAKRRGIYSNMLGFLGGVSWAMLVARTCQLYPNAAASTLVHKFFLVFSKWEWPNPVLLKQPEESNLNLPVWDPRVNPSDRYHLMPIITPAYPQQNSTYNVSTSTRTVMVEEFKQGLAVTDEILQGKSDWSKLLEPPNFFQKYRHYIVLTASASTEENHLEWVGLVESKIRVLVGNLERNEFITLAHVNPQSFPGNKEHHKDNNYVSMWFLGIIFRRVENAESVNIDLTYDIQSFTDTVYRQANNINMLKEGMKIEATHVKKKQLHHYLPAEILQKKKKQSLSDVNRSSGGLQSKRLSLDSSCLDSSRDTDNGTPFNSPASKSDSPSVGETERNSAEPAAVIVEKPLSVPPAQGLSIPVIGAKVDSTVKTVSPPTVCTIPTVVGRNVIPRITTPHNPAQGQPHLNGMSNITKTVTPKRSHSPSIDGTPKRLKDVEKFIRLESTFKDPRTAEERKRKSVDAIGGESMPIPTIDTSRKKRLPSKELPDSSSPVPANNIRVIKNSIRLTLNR
# UniProt Q99829: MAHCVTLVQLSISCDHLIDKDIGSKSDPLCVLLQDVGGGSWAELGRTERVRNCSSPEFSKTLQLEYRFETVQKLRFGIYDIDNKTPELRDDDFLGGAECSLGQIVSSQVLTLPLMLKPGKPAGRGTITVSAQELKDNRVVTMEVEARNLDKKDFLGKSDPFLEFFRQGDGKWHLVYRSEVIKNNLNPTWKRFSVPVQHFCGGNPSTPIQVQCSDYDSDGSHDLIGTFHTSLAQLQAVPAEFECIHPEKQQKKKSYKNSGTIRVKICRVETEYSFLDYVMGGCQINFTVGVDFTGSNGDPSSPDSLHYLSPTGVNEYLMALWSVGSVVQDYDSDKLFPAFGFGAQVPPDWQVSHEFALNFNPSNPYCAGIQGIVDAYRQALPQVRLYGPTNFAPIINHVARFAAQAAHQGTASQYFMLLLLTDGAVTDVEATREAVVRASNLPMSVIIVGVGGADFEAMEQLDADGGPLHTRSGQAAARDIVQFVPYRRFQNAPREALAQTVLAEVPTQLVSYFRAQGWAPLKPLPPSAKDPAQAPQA
# UniProt Q99942: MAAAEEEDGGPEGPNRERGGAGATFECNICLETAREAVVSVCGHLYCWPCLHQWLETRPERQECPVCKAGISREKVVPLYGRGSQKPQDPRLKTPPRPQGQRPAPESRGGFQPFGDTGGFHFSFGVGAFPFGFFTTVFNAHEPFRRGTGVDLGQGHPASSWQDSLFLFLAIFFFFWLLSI
# UniProt Q96T51: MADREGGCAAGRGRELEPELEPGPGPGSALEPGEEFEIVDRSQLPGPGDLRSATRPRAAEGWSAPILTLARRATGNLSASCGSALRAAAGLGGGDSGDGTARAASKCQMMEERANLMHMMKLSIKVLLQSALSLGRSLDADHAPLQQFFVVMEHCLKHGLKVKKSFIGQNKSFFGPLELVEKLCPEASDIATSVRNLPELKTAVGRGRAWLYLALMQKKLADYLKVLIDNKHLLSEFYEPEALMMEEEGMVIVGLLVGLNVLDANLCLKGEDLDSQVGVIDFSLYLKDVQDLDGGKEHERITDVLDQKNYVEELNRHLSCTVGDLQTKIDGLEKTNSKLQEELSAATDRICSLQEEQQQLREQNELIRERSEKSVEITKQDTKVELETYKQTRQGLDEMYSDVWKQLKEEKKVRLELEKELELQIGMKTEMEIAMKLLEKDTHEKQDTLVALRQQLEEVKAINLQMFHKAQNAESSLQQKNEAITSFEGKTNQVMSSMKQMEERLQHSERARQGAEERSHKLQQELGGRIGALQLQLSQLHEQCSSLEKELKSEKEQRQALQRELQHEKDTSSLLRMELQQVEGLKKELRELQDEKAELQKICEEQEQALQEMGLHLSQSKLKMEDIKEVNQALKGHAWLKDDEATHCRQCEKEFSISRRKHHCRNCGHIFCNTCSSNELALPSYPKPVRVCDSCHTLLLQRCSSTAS
# UniProt Q9BT23: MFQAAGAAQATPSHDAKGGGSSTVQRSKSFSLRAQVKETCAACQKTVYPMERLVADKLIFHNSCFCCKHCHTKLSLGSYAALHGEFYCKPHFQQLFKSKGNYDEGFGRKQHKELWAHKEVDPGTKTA
# UniProt Q9BRK5: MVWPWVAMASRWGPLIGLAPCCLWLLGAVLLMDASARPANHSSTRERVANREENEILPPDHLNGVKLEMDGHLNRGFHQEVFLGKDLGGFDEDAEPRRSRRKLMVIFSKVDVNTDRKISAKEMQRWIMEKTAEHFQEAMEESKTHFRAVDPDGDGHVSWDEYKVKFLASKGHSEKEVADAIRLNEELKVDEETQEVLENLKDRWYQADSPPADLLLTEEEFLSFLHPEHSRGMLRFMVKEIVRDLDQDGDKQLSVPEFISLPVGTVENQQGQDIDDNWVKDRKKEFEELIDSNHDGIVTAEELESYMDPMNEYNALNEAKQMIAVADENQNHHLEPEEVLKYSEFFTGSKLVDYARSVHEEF
# UniProt Q9BV57: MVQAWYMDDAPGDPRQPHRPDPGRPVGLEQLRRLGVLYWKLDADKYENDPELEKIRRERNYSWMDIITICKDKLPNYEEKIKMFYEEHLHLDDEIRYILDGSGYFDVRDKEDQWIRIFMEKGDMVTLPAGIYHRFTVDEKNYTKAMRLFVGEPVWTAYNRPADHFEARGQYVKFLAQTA
# UniProt Q96TA2: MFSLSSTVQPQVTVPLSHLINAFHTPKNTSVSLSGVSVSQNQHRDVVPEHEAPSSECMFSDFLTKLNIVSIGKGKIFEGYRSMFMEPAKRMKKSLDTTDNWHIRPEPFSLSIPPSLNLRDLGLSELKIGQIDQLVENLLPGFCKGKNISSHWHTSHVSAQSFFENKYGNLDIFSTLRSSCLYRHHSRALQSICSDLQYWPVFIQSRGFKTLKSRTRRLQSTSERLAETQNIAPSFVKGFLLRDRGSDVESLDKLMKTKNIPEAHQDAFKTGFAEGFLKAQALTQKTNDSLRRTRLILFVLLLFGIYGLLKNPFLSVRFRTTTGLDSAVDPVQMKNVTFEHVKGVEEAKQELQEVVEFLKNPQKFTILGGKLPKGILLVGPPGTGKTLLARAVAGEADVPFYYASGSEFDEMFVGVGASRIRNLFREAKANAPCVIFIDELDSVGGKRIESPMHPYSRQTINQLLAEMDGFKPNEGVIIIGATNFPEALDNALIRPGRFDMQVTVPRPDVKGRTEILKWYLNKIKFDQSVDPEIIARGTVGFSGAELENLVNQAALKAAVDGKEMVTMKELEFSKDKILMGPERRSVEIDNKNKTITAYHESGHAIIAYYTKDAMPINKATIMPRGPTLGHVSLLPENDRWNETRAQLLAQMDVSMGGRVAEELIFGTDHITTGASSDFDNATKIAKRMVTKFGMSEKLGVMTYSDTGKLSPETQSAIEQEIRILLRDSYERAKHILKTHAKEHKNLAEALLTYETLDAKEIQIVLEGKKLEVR
# UniProt Q9BYN0: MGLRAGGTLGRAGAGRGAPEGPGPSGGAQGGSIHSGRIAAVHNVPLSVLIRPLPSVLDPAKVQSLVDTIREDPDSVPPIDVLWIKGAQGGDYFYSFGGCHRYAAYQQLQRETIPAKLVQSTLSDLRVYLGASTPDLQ
# ± gives the standard deviation of the averaged measurements. Only a part is listed here, and it is no random draw.
# Compound: Nc1ncnc2c1ncn2[C@@H]1O[C@H](COP(=O)(O)OP(=O)(O)NP(=O)(O)O)[C@@H](O)[C@H]1O [adenylyl imidodiphosphate]
# Test: NP40-soluble protein abundance relative to vehicle (solubility fold change) (ratio); higher = more soluble protein in presence of AMP-PNP
# How it was run: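 Values are fold changes against the detergent-processed vehicle, based on vsn-normalised intensities. Jurkat crude lysate was treated at eight concentrations from 0.1 to 10 mM (10 min at room temperature, then 3 min at 37 °C), solubilised with 0.8% NP40 and benzonase, ultracentrifuged and analysed by TMT-labelled LC-MS/MS over three independent experiments.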
Target,NP40-soluble protein abundance (concentration: 1mM),NP40-soluble protein abundance (concentration: 2mM),NP40-soluble protein abundance (concentration: 4mM),NP40-soluble protein abundance (concentration: 6mM),NP40-soluble protein abundance (concentration: 8mM),NP40-soluble protein abundance (concentration: 10mM)
UniProt Q9BU23 and related entries,0.947 ± 0.031,0.956 ± 0.066,0.971 ± 0.015,0.951 ± 0.032,0.983 ± 0.018,0.94 ± 0.051
UniProt Q99571 and related entries,0.986 ± 0.019,0.959 ± 0.019,0.971 ± 0.019,1.014 ± 0.0026,1.012 ± 0.0075,1.01 ± 0.039
UniProt Q9BV73 and related entries,0.9944 ± 0.0088,1.05 ± 0.042,1.02 ± 0.026,0.987 ± 0.017,0.963 ± 0.034,0.933 ± 0.018
UniProt Q96SN8 and related entries,1.01 ± 0.053,1.044 ± 0.0032,1 ± 0.049,0.96 ± 0.067,0.928 ± 0.023,0.947 ± 0.055
DCTN5 (UniProt Q9BTE1),0.955 ± 0.016,0.948 ± 0.04,0.972 ± 0.048,0.9842 ± 0.0041,1.02 ± 0.016,1.02 ± 0.064
UniProt Q96RU2-2,0.972 ± 0.028,0.9943 ± 0.0032,0.9614 ± 0.0074,0.956 ± 0.007,0.98 ± 0.017,0.969 ± 0.052
UniProt Q9BYV8,0.99 ± 0.027,1.04 ± 0.053,0.976 ± 0.041,0.984 ± 0.038,0.954 ± 0.046,0.981 ± 0.012
BACH2 (UniProt Q9BYV9),1.01 ± 0.017,1.02 ± 0.031,0.992 ± 0.04,1.02 ± 0.035,0.991 ± 0.045,1.02 ± 0.05
UniProt Q9BX40 and related entries,1.06 ± 0.022,1.09 ± 0.03,1.1 ± 0.038,1.09 ± 0.012,1.11 ± 0.015,1.18 ± 0.016
ACAT2 (UniProt Q9BWD1),0.987 ± 0.021,0.996 ± 0.038,0.931 ± 0.021,0.967 ± 0.017,0.951 ± 0.021,0.92 ± 0.02
UniProt Q96S66 and related entries,0.987 ± 0.028,1.01 ± 0.048,0.98 ± 0.03,1 ± 0.015,0.987 ± 0.059,1 ± 0.048
NUP88 (UniProt Q99567),0.981 ± 0.04,0.973 ± 0.021,1.03 ± 0.032,0.978 ± 0.014,1.01 ± 0.039,1.08 ± 0.043
TARS2 (UniProt Q9BW92),0.951 ± 0.014,0.878 ± 0.11,0.9746 ± 0.0075,0.934 ± 0.01,0.966 ± 0.032,0.9239 ± 0.0078
UniProt Q9BWT3 and related entries,1 ± 0.038,1.04 ± 0.045,1.05 ± 0.018,1.05 ± 0.029,1.05 ± 0.05,1.08 ± 0.028
UniProt Q9BTY7,0.954 ± 0.04,0.988 ± 0.032,0.97 ± 0.041,0.915 ± 0.04,0.923 ± 0.018,0.872 ± 0.048
UniProt Q96RL7 and related entries,0.982 ± 0.039,0.918 ± 0.098,0.969 ± 0.012,0.916 ± 0.024,0.949 ± 0.022,0.8993 ± 0.0069
TRMT61B (UniProt Q9BVS5),1 ± 0.04,0.984 ± 0.051,0.991 ± 0.041,0.975 ± 0.026,1 ± 0.06,0.989 ± 0.053
UniProt Q9BTA9 and related entries,1.04 ± 0.018,1.11 ± 0.095,1.03 ± 0.03,1.04 ± 0.024,1.04 ± 0.034,1.05 ± 0.028
UniProt Q99081 and related entries,1.026 ± 0.0055,1.03 ± 0.031,0.979 ± 0.066,0.947 ± 0.019,0.93 ± 0.022,0.956 ± 0.05
PELO (UniProt Q9BRX2),0.972 ± 0.012,0.918 ± 0.05,0.961 ± 0.025,0.977 ± 0.014,1.01 ± 0.011,0.974 ± 0.016

Target,NP40-soluble protein abundance (concentration: 1mM),NP40-soluble protein abundance (concentration: 2mM),NP40-soluble protein abundance (concentration: 4mM),NP40-soluble protein abundance (concentration: 6mM),NP40-soluble protein abundance (concentration: 8mM),NP40-soluble protein abundance (concentration: 10mM)
UniProt Q9BTE3 and related entries,0.977 ± 0.021,0.94 ± 0.052,0.9719 ± 0.0037,0.944 ± 0.024,0.958 ± 0.023,0.941 ± 0.018
UniProt Q9BQP7,1.04 ± 0.025,1.1 ± 0.047,1.06 ± 0.053,1.009 ± 0.0084,1 ± 0.028,1.02 ± 0.052
UniProt Q99829 and related entries,0.973 ± 0.022,0.935 ± 0.014,0.9803 ± 0.0079,1.03 ± 0.062,1.06 ± 0.076,1.02 ± 0.038
UniProt Q96QU8 and related entries,1.02 ± 0.022,1.019 ± 0.0031,1.01 ± 0.026,1 ± 0.017,1.03 ± 0.023,1.03 ± 0.013
UniProt Q9BQ39 and related entries,1.22 ± 0.068,1.27 ± 0.062,1.35 ± 0.023,1.43 ± 0.04,1.52 ± 0.097,1.5 ± 0.14
RNF5 (UniProt Q99942),1.06 ± 0.077,1.03 ± 0.045,1.03 ± 0.057,1 ± 0.033,1.03 ± 0.059,0.9838 ± 0.0018
C7orf50 (UniProt Q9BRJ6),1.05 ± 0.029,1.03 ± 0.02,1.067 ± 0.0013,1.01 ± 0.036,1.058 ± 0.0046,1.04 ± 0.011
BUD13 (UniProt Q9BRD0),1.01 ± 0.027,1.06 ± 0.088,1.04 ± 0.016,1.02 ± 0.017,1.04 ± 0.042,1.08 ± 0.02
UniProt Q9BT25 and related entries,1.01 ± 0.014,1.04 ± 0.099,0.96 ± 0.048,0.94 ± 0.018,0.958 ± 0.027,0.952 ± 0.025
PSMD1 (UniProt Q99460),0.902 ± 0.044,0.887 ± 0.06,0.851 ± 0.094,0.863 ± 0.11,0.848 ± 0.098,0.847 ± 0.13
UniProt Q96RP9 and related entries,0.99 ± 0.021,0.981 ± 0.031,0.989 ± 0.02,0.976 ± 0.01,0.972 ± 0.022,0.949 ± 0.029
UniProt Q9BV81,0.971 ± 0.012,0.972 ± 0.018,0.963 ± 0.035,0.968 ± 0.019,0.969 ± 0.024,0.942 ± 0.013
CCT7 (UniProt Q99832),0.936 ± 0.056,0.906 ± 0.052,0.907 ± 0.092,0.96 ± 0.065,0.946 ± 0.092,0.963 ± 0.18
UniProt Q9BX66-10|Q9BX66-12|Q9BX66-4|Q9BX66-5|Q9BX66-6|Q9BX66-8|Q9BX66-9,0.979 ± 0.024,1.02 ± 0.022,1.03 ± 0.014,1.019 ± 0.0014,0.993 ± 0.0014,1.0151 ± 0.00071
UniProt Q9BYX2 and related entries,0.981 ± 0.013,0.9921 ± 0.0015,1 ± 0.028,0.985 ± 0.042,0.972 ± 0.012,0.9639 ± 0.0013
UniProt Q9BSD7,1.15 ± 0.067,1.11 ± 0.12,1.15 ± 0.063,1.2 ± 0.05,1.19 ± 0.073,1.17 ± 0.058
TSNAX (UniProt Q99598),0.973 ± 0.024,0.997 ± 0.052,0.985 ± 0.035,1.03 ± 0.057,1.03 ± 0.043,1.02 ± 0.061
GINS4 (UniProt Q9BRT9),0.954 ± 0.015,0.965 ± 0.031,0.9378 ± 0.0092,0.9202 ± 0.0076,0.919 ± 0.043,0.883 ± 0.037
MRI1 (UniProt Q9BV20),0.9999 ± 0.0086,1.02 ± 0.035,0.9968 ± 0.0072,0.98 ± 0.016,0.983 ± 0.043,0.962 ± 0.031
PNKP (UniProt Q96T60),1.02 ± 0.041,1.02 ± 0.054,1.1 ± 0.071,1.18 ± 0.021,1.23 ± 0.047,1.22 ± 0.079

# 4 entries drawn at random from the list so far:
Target,NP40-soluble protein abundance (concentration: 1mM),NP40-soluble protein abundance (concentration: 2mM),NP40-soluble protein abundance (concentration: 4mM),NP40-soluble protein abundance (concentration: 6mM),NP40-soluble protein abundance (concentration: 8mM),NP40-soluble protein abundance (concentration: 10mM)
RNF5 (UniProt Q99942),1.06 ± 0.077,1.03 ± 0.045,1.03 ± 0.057,1 ± 0.033,1.03 ± 0.059,0.9838 ± 0.0018
UniProt Q9BYV8,0.99 ± 0.027,1.04 ± 0.053,0.976 ± 0.041,0.984 ± 0.038,0.954 ± 0.046,0.981 ± 0.012
BACH2 (UniProt Q9BYV9),1.01 ± 0.017,1.02 ± 0.031,0.992 ± 0.04,1.02 ± 0.035,0.991 ± 0.045,1.02 ± 0.05
UniProt Q96RL7 and related entries,0.982 ± 0.039,0.918 ± 0.098,0.969 ± 0.012,0.916 ± 0.024,0.949 ± 0.022,0.8993 ± 0.0069

# More records:

Target,NP40-soluble protein abundance (concentration: 1mM),NP40-soluble protein abundance (concentration: 2mM),NP40-soluble protein abundance (concentration: 4mM),NP40-soluble protein abundance (concentration: 6mM),NP40-soluble protein abundance (concentration: 8mM),NP40-soluble protein abundance (concentration: 10mM)
UniProt Q96TA1 and related entries,0.968 ± 0.022,0.956 ± 0.021,0.98 ± 0.019,1.01 ± 0.054,1.01 ± 0.093,1.01 ± 0.11
UniProt Q96T51 and related entries,0.989 ± 0.012,1.02 ± 0.02,0.9681 ± 0.0061,0.954 ± 0.037,0.911 ± 0.012,0.944 ± 0.043
C16orf70 (UniProt Q9BSU1),1.01 ± 0.056,0.978 ± 0.029,0.982 ± 0.042,1.01 ± 0.018,1.02 ± 0.02,1.05 ± 0.02
GPATCH1 (UniProt Q9BRR8),1.03 ± 0.039,1.02 ± 0.029,1.06 ± 0.037,1.04 ± 0.047,1.04 ± 0.043,1.08 ± 0.059
PRPF18 (UniProt Q99633),1.02 ± 0.045,1.05 ± 0.014,1.06 ± 0.04,1.05 ± 0.044,1.05 ± 0.014,1.09 ± 0.06
LIMD2 (UniProt Q9BT23),1.12 ± 0.048,1.12 ± 0.055,1.09 ± 0.092,1.111 ± 0.0068,1.12 ± 0.061,1.15 ± 0.092
SDF4 (UniProt Q9BRK5),0.998 ± 0.023,1.04 ± 0.087,0.962 ± 0.033,0.945 ± 0.012,0.907 ± 0.021,0.912 ± 0.077
ADI1 (UniProt Q9BV57),1.01 ± 0.039,0.94 ± 0.011,0.972 ± 0.022,0.966 ± 0.026,0.989 ± 0.013,0.914 ± 0.051
UniProt Q9BTD8 and related entries,1.03 ± 0.026,1.07 ± 0.08,1.1 ± 0.045,1.17 ± 0.024,1.272 ± 0.0094,1.32 ± 0.071
SGPP1 (UniProt Q9BX95),0.978 ± 0.037,0.994 ± 0.033,1 ± 0.056,1.05 ± 0.05,1.04 ± 0.049,1.04 ± 0.026
SDF2 (UniProt Q99470),0.975 ± 0.024,0.977 ± 0.056,0.946 ± 0.083,0.931 ± 0.057,0.902 ± 0.067,0.954 ± 0.019
UniProt Q96TA2 and related entries,0.999 ± 0.037,0.952 ± 0.1,0.98 ± 0.032,0.973 ± 0.038,0.977 ± 0.046,0.968 ± 0.061
MECR (UniProt Q9BV79),1.04 ± 0.021,1.21 ± 0.051,1.07 ± 0.011,1.04 ± 0.024,1.048 ± 0.0045,1.05 ± 0.03
UniProt Q99640 and related entries,0.99 ± 0.024,1 ± 0.013,0.991 ± 0.011,0.962 ± 0.039,0.919 ± 0.023,0.951 ± 0.04
VAT1 (UniProt Q99536),0.976 ± 0.02,0.987 ± 0.034,0.962 ± 0.029,1 ± 0.05,0.981 ± 0.044,0.975 ± 0.051
GRWD1 (UniProt Q9BQ67),1.09 ± 0.064,1.01 ± 0.089,1.11 ± 0.068,1.05 ± 0.043,1.11 ± 0.073,1.04 ± 0.045
SRXN1 (UniProt Q9BYN0),0.994 ± 0.025,1.03 ± 0.024,0.9992 ± 0.0044,0.9857 ± 0.0064,0.9851 ± 0.0097,0.994 ± 0.016
PLEKHF1 (UniProt Q96S99),0.93 ± 0.0023,0.938 ± 0.032,0.947 ± 0.05,0.986 ± 0.088,0.9985 ± 0.0049,1.004 ± 0.0072
UniProt Q9BTT6,1.021 ± 0.0053,0.954 ± 0.013,0.947 ± 0.013,0.989 ± 0.035,0.958 ± 0.019,0.9599 ± 0.0091
CDC5L (UniProt Q99459),1.04 ± 0.036,1.09 ± 0.075,1.08 ± 0.031,1.12 ± 0.073,1.13 ± 0.076,1.2 ± 0.11
